Data published in article doi:10.1101/2022.01.28.478199.
No constants are given. Whether binding was seen depends on the method and setting. Binding seen in cells or lysates may run through a third protein. Some binding calls cover weakened binding; strength is not graded here. Blank lines part the entries; values can stand above or below the binder they belong to.

Chains of the proteins cited; added tags and fusions are not shown. Residues count along the entry.
UniProt P33416, residues 45-811: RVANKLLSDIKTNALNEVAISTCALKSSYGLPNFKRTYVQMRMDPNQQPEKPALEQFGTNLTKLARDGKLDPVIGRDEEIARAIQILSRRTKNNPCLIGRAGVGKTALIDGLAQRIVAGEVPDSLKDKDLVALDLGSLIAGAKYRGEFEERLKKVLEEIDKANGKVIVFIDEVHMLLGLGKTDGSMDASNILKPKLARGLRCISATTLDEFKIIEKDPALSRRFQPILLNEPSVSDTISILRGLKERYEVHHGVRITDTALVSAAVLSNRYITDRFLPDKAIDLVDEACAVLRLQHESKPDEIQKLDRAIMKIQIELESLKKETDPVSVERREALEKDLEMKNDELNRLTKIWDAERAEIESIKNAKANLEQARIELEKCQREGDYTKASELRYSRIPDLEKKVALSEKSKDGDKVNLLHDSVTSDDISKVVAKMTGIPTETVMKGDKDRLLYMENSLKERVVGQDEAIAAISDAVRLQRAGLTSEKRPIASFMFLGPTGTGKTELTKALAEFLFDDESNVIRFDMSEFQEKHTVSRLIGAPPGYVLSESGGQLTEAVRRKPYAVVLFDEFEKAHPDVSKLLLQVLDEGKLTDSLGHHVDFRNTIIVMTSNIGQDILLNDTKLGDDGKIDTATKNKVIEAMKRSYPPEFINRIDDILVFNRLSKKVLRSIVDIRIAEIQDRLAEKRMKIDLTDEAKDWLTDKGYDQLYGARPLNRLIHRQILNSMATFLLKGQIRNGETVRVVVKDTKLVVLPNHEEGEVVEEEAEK

Biological target: Hsp78-6xHis (wild-type Hsp78 with a C-terminal 6x polyhistidine-tag) (S. cerevisiae) (UniProt P33416)
Assay: pull-down

binding: binds
B1: Ilv2 (protein, UniProt P07342 91-687)
chain: GLTGGQIFNEMMSRQNVDTVFGYPGGAILPVYDAIHNSDKFNFVLPKHEQGAGHMAEGYARASGKPGVVLVTSGPGATNVVTPMADAFADGIPMVVFTGQVPTSAIGTDAFQEADVVGISRSCTKWNVMVKSVEELPLRINEAFEIATSGRPGPVLVDLPKDVTAAILRNPIPTKTTLPSNALNQLTSRAQDEFVMQSINKAADLINLAKKPVLYVGAGILNHADGPRLLKELSDRAQIPVTTTLQGLGSFDQEDPKSLDMLGMHGCATANLAVQNADLIIAVGARFDDRVTGNISKFAPEARRAAAEGRGGIIHFEVSPKNINKVVQTQIAVEGDATTNLGKMMSKIFPVKERSEWFAQINKWKKEYPYAYMEETPGSKIKPQTVIKKLSKVANDTGRHVIVTTGVGQHQMWAAQHWTWRNPHTFITSGGLGTMGYGLPAAIGAQVAKPESLVIDIDGDASFNMTLTELSSAVQAGTPVKILILNNEEQGMVTQWQSLFYEHRYSHTHQLNPDFIKLAEAMGLKGLRVKKQEELDAKLKEFVSTKGPVLLEVEVDKKVPVLPMVAGGSGLDEFINFDPEVERQQTELRHKRTGGKH

binding: binds
B2: Mdj1 (member of the DnaJ co-chaperone family of the mitochondrial Hsp70 system) (protein, UniProt P35191 56-511)
chain: NEAFKDPYDTLGLKKSATGAEIKKAYYKLAKKYHPDINKEPDAEKKFHDLQNAYEILSDETKRQQYDQFGPAAFGGGGAAGGAGGGSGSPFGSQFHDFSGFTSAGGSPFGGINFEDLFGAAFGGGGRGSGGASRSSSMFRQYRGDPIEIVHKVSFKDAVFGSKNVQLRFSALDPCSTCSGTGMKPNTHKVSCSTCHGTGTTVHIRGGFQMMSTCPTCNGEGTMKRPQDNCTKCHGEGVQVNRAKTITVDLPHGLQDGDVVRIPGQGSYPDIAVEADLKDSVKLSRGDILVRIRVDKDPNFSIKNKYDIWYDKEIPITTAALGGTVTIPTVEGQKIRIKVAPGTQYNQVISIPNMGVPKTSTIRGDMKVQYKIVVKKPQSLAEKCLWEALADVTNDDMAKKTMQPGTAAGTAINEEILKKQKQEEEKHAKKDDDNTLKRLENFITNTFRKIKGDKKN

binding: no binding
B3: Mdh1 (protein, UniProt P17505 18-334)
chain: YKVTVLGAGGGIGQPLSLLLKLNHKVTDLRLYDLKGAKGVATDLSHIPTNSVVKGFTPEEPDGLNNALKDTDMVLIPAGVPRKPGMTRDDLFAINASIVRDLAAATAESAPNAAILVISNPVNSTVPIVAQVLKNKGVYNPKKLFGVTTLDSIRAARFISEVENTDPTQERVNVIGGHSGITIIPLISQTNHKLMSDDKRHELIHRIQFGGDEVVKAKNGAGSATLSMAHAGAKFANAVLSGFKGERDVIEPSFVDSPLFKSEGIEFFASPVTLGPDGIEKIHPIGELSSEEEEMLQKCKETLKKNIEKGVNFVASK
